Assay results reported in PubChem BioAssay AID1347075 (National Center for Advancing Translational Sciences (NCATS), 2019).
Hit rate of the full screen: of about 400,000 compounds, about 5,500 (1.4%) were called active. The inconclusive results got no clear call from the source; some entries with a clear call stand among them for comparison. The call rests on the fitted dose curve; in most records, active means well fitted cell-killing curve with a large enough effect; inconclusive means small, poorly fitted or top-dose-only effect, or effect the other way; inactive means flat fitted curve, though single readings scatter. Potencies beside an inconclusive call are fits to weak or partial responses and may not hold up.
On the % scale 0 is the no-effect control and ±100 the full control effect; potency means the concentration at half of the fitted maximal effect.

Experiment: qHTS assay for MDR1-selective chemotherapeutics: Primary screen using the parental adenocarcinoma cell KB-3-1; further: nearly all actives have a fitted effect of over 60% in size
Details: KB-3-1 viability, CellTiter-Glo ATP luminescence, 72 h; activity change, negative = cytotoxic: at 46.1 µM (top of the series)
Source text: A prime difficulty in effectively treating cancer is the development of cellular resistance to multiple structurally unrelated anticancer drugs, a phenomenon known as multidrug resistance (MDR). […] Numerous strategies to overcome P-gp-mediated MDR have been explored, including the design of drugs that evade recognition and efflux, and development of inhibitors to block efflux and restore drug accumulation. […] An alternative approach is to exploit resistance by identifying drugs that target MDR cells over the non-resistant parental cells from which they were selected. […] The development of MDR1-selective agents represents a new strategy for resolving multidrug resistance, as it remains a long-standing clinical challenge for cancer chemotherapy.
Our goal is to identify compounds that selectively kill P-gp-expressing MDR cells. We will identify MDR1-selective compounds by comparing toxicity of compounds in the screening library against parental, drug-naive (KB-3-1) adenocarcinoma cells as well as their drug-selected MDR sub-line (KB-V1). The differential toxicity of compounds against these two cell lines will be used to identify MDR1-selective compounds, whose cytotoxicity is potentiated, rather than diminished, by P-gp expression. This assay will be utilized to conduct a quantitative high-throughput screen (qHTS) in collaboration with the NIH Chemical Genomics Center to identify selective agents, and probe hits arising from the screen will be validated using secondary assays and characterized through a well-established follow-up research program. This screen was run against the entire NCGC library collection of about 400,000 compounds.
NIH Molecular Libraries Probe Production Network [MLPCN]
NIH Chemical Genomics Center [NCGC]
PI: Michael Gottesman PhD, National Cancer Institute, NIH
Briefly, 5 microL of media containing either KB-3-1 cells (columns 1-2, 4-48) are dispensed into Greiner white, treated solid-bottom 1536-well assay plates (media-only control is added to column 3). Compounds are then transferred via Kalypsys pin tool equipped with 1536-pin array (10 nL slotted pins, V&P Scientific, San Diego, CA). Following addition of compound, the plates are incubated at 37 degrees C for 72 hours. CellTiter-Glo (2.5 µL/well) is then added, and the plates are read in a ViewLux reader (Perkin-Elmer, clear luminescence filter, 1 second exposure, 1x binning) following a 10 minute incubation. All cells are dispensed in DMEM phenol-red free media containing 10% FBS.
Library plates were screened starting from the lowest and proceeding to the highest concentration. Vehicle-only plates, with DMSO being pin-transferred to columns 5-48, will be inserted uniformly at the beginning and the end of each library in order to monitor and record any shifts in the background, which can be affected by reagent dispensers or loss in enzyme activity over time. Screening data will be corrected, normalized, and concentration-effect relationships will be derived by using publicly-available NCGC, NCATS curve fitting algorithms (http://ncgc.nih.gov/pub/openhts).
With `CCOC(=O)c1c(-n2c(C)cc(C=C3C(=O)NC(=O)NC3=O)c2C)sc2c1CCCC2` the Potency was inconclusive: 29.1 µM [cytotoxic, single point]. For `COc1cc2occc2c2oc(=O)ccc12`, the “activity change, negative = cytotoxic” value was inactive: 0%. With `C=CCN1C(=O)c2ccccc2Sc2ccc(C(=O)N3CCC4(CC3)OCCO4)cc21` the Potency was inconclusive: 7.31 µM [cytotoxic, partial curve, poor fit]. With `CCCC1(CCO)C(=O)NC(=S)NC1=O` the Potency was inconclusive: 16.4 µM [rising, partial curve, poor fit]. For `CCOC(=O)[C@]12Cc3cc(OC)ccc3[C@H]1N(CCC(=O)OC)C(=O)c1cc(OC)ccc12`, the Potency was active: 5.17 µM. With `O=C1NC(=O)N(c2ccc(F)cc2)C(=O)/C1=C/c1ccc2c(c1)CCCN2Cc1ccccc1` the Potency was inconclusive: 29.1 µM [cytotoxic, single point]. For `O=C1C=C(N2CC2)c2ccccc2C1=O`, the Potency was active: 20.6 µM. With `COC(=O)C1=C(c2ccc(F)cc2OCc2ccccc2)C[C@@H]2CC[C@H]1N2C(=O)NCc1ccc(C(C)(C)C)cc1` the Potency was inconclusive: 29.1 µM [cytotoxic, single point]. In the case of `c1ccc2c(c1)[nH]c1cnccc12`, the “activity change, negative = cytotoxic” value was inactive: 0%. In the case of `Cc1cc(-c2ccccc2)cc(-c2ccccc2)[n+]1CCc1ccccc1`, the Potency was inconclusive: 14.6 µM [cytotoxic, partial curve, poor fit]. For `CN1CCCC2c3ccccc3CCC21` (stereo unspecified), the Potency was inconclusive: 14.6 µM [rising, single point]. With `O=C(C[N+]12CCC(CC1)C(OC(=O)c1ccccc1)C2)c1ccc([N+](=O)[O-])cc1` (stereo unspecified) the Potency was inconclusive: 20.6 µM [cytotoxic, partial curve, poor fit]. With `O=S1(=O)N(CCN2CC=C(c3c[nH]c4cc(F)ccc34)CC2)c2cccc3c2N1CCC3` the Potency was inconclusive: 29.1 µM [cytotoxic, single point]. For `CC1=CC(C)CC(C)OC(=O)CC(c2ccc(O)cc2)NC(=O)C(Cc2c(Br)[nH]c3ccccc23)N(C)C(=O)C(C)NC(=O)C(C)C1` (stereo unspecified), the Potency was active: 0.184 µM. With `COC(=O)C1=C(c2ccc(F)cc2OCc2ccccc2)C[C@@H]2CC[C@H]1N2C(=O)NCc1ccc2c(c1)OCO2` the Potency was inconclusive: 18.4 µM [cytotoxic, single point]. In the case of `C[C@]12CCC3=C4CCC(=O)C=C4CC[C@H]3C1CC[C@@H]2O` (stereo partly specified), the Potency was active: 10.3 µM. With `CCCCCn1c(=O)c(C(=O)Nc2ccccc2N)c(O)c2ccccc21` the “activity change, negative = cytotoxic” value was inactive: -0.662%. With `CCOC(=O)C(O)(c1ccc(NC(=S)NC(=O)c2ccc(Cl)cc2Cl)c(C)c1)C(F)(F)F` (stereo unspecified) the Potency was inconclusive: 18.4 µM [cytotoxic, single point]. With `C[C@H]1CCCC=CC2C[C@H](O)C[C@@H]2[C@H](O)C=CC(=O)O1` (stereo partly specified) the Potency was active: 0.0073 µM. For `Cc1cccc(-n2c(C)nc3cc(C(=O)N4CCC5(CC4)OCCO5)ccc32)c1`, the Potency was inconclusive: 29.1 µM [cytotoxic, single point]. For `CCN(CC)C(=O)c1ccc2c(c1)C1C(Cl)C(Sc3ccccc3[N+](=O)[O-])CC1C(C(=O)O)N2` (stereo unspecified), the Potency was active: 2.59 µM. With `COc1cccc(C(=O)N2CCC3(CC2)OCCO3)c1` the “activity change, negative = cytotoxic” value was inactive: -5.04%. For `C/C=C(\C)C(=O)N[C@@H](c1ccccc1)[C@@H](O)C(=O)O[C@H]1C[C@@]2(O)[C@@H](OC(=O)c3ccccc3)C3[C@](C)(C(=O)[C@H](OC(C)=O)C(=C1C)C2(C)C)[C@@H](O)C[C@H]1OC[C@@]31OC(C)=O` (stereo partly specified), the Potency was inconclusive: 0.0052 µM [cytotoxic, full curve, poor fit]. With `NC(N)=N/N=C/c1ccc(N2CCOCC2)cc1` the Potency was inconclusive: 29.1 µM [cytotoxic, single point]. For `CC(C)(C)n1nnnc1C(CCc1ccccc1)N1CCC(n2c(=O)[nH]c3ccccc32)CC1` (stereo unspecified), the Potency was inconclusive: 29.1 µM [cytotoxic, single point]. With `Cc1cccc(OP(=O)(Nc2ccc(F)cc2)Oc2cccc(C)c2)c1` the Potency was inconclusive: 16.4 µM [cytotoxic, single point]. In the case of `c1cc2c(cc1NC1=NCCO1)CCCC2`, the Potency was active: 14.6 µM. For `NCCc1ccccc1`, the “activity change, negative = cytotoxic” value was inactive: 0%. In the case of `c1ccc2c(CN3CCCCCC3)c[nH]c2c1`, the Potency was active: 14.6 µM. With `CC12C=CC(=O)C=C1CC(O)C1C2CCC2(C)C1CCC2(C)O` (stereo unspecified) the Potency was inconclusive: 29.1 µM [rising, single point]. With `CN1C(=O)/C(=C/C=C/c2ccco2)C(=O)NC1=S` the “activity change, negative = cytotoxic” value was inactive: 11.6%. For `C=CCn1c(O)c(C(C)=NCc2cccnc2)c(=O)[nH]c1=O`, the “activity change, negative = cytotoxic” value was inactive: -9.57%. In the case of `CCC(=Nc1ccccc1N)c1c(O)[nH]c(=O)[nH]c1=O`, the “activity change, negative = cytotoxic” value was inactive: -29.8%. For `O=C1C2CCN(CC2)C12CC2c1ccc(C(F)(F)F)cc1` (stereo unspecified), the activity change, negative = cytotoxic was inconclusive: 6.75%. With `CCCCNS(=O)(=O)c1ccc(OCC(=O)N2CCN(Cc3ccc4c(c3)OCO4)CC2)cc1` the Potency was inconclusive: 16.4 µM [cytotoxic, partial curve, poor fit]. In the case of `COc1ccc(/C=C/C(=O)c2c(O)n(CCC3=CCCCC3)c(=O)[nH]c2=O)cc1`, the Potency was active: 20.6 µM. In the case of `O=[N+]([O-])c1cccc(NP(=O)(Oc2ccccc2)Oc2ccccc2)c1`, the Potency was inconclusive: 14.6 µM [cytotoxic, partial curve]. In the case of `CC(Cc1ccccc1)/[N+]([O-])=C\c1ccc(C(F)(F)F)cc1` (stereo unspecified), the “activity change, negative = cytotoxic” value was inactive: -6.16%. In the case of `CC1(C)CN=C(NCc2ccccc2Cl)S1`, the Potency was inconclusive: 9.2 µM [rising, partial curve]. For `COc1ccc(OC(=O)N(C)C[C@@H]2OCc3cnnn3CCCC(=O)N([C@@H](C)CO)C[C@@H]2C)cc1`, the “activity change, negative = cytotoxic” value was inactive: 10%. In the case of `COc1cccc(N2C(=O)NC(=O)C3(Cc4cc(C)ccc4N(C)C3)C2=O)c1` (stereo unspecified), the “activity change, negative = cytotoxic” value was inactive: -5.36%. With `FC(F)(F)c1ccc2c(c1)N(CCCN1CCN(CCCl)CC1)c1ccccc1S2` the Potency was inconclusive: 29.1 µM [cytotoxic, single point]. In the case of `CC1C(c2ccccc2)OC(=O)N1C` (stereo unspecified), the “activity change, negative = cytotoxic” value was inactive: 8.56%. For `COC(=O)C1=C(c2ccc(-c3ccccc3)c(F)c2)C[C@@H]2CC[C@H]1N2C(=O)NC1Cc2ccccc2C1`, the Potency was inconclusive: 29.1 µM [cytotoxic, single point]. In the case of `CN(Cc1cccc(-c2ccncc2)c1)C(=O)Oc1ccccc1Cc1ccccc1`, the Potency was active: 14.6 µM. For `COC(=O)C1=C(C(=O)OC)SC2(S1)C(C(=O)OC)=C(C(=O)OC)Sc1c2ssc1=O`, the Potency was inconclusive: 29.1 µM [cytotoxic, single point]. With `O=C1C2CCCN2C(c2cccnc2)N1c1ccc(Cl)cc1` (stereo unspecified) the Potency was inconclusive: 32.6 µM [cytotoxic, partial curve, poor fit]. For `COC(=O)CSC1=NN1c1cc(C)nc(N)n1`, the activity change, negative = cytotoxic was inconclusive: -8.56%. For `CCCCCSc1cc(OC)c(CCNC)cc1OC`, the “activity change, negative = cytotoxic” value was inactive: -15.7%. For `CC1(C)CC(=O)CC(C)(C)N1O`, the Potency was inconclusive: 20.6 µM [rising, single point]. In the case of `O=C1NC(=O)C(=Cc2ccc(SC3CCCCC3)o2)C(=O)N1`, the “activity change, negative = cytotoxic” value was inactive: -18.7%. For `CCCCCCC(=O)c1c(O)n(-c2ccc(OC)cc2)c(=O)[nH]c1=O` (tested in a mixture with another compound), the “activity change, negative = cytotoxic” value was inactive: -7.53%. For `COc1cc2c(cc1OC)C(c1c(O)n(CCc3ccccc3)c(=S)[nH]c1=O)NCC2` (stereo unspecified), the “activity change, negative = cytotoxic” value was inactive: 4.73%. With `CCOC(=O)C1=C(N)OC2=C(C(=O)CCC2)[C@]12C(=O)N(CC(N)=O)c1ccccc12` the “activity change, negative = cytotoxic” value was inactive: 6.2%. For `C=C1C(O)[C@@H]2O[C@]3(CC[C@H](/C=C/C(C)[C@@H]4CC(C)=CC5(O[C@H](C[C@@](C)(O)C(=O)O)CCC5O)O4)O3)CC[C@H]2O[C@@H]1C(O)CC(C)[C@H]1OC2(CCCCO2)CCC1C` (stereo partly specified), the Potency was inconclusive: 0.0046 µM [cytotoxic, full curve, poor fit]. For `Cc1onc(-c2c(Cl)cccc2Cl)c1C(=O)Nc1ccc2c(C(F)(F)F)cc(=O)oc2c1`, the Potency was inconclusive: 32.6 µM [cytotoxic, single point]. With `COc1ccc([N+](=O)[O-])cc1N=Cc1c(O)n(CCc2ccccc2)c(=O)n(C(C)C)c1=O` the Potency was inconclusive: 29.1 µM [cytotoxic, single point]. With `COC1C(O)C(C)OC(OC2C(Oc3cccc4c(O)c5c(=O)oc6ccc(C)c7c(=O)oc(c34)c5c67)OC(C)C(O)C2O)C1O` (stereo unspecified) the Potency was active: 14.6 µM. With `CCCNC(=O)N1[C@H]2CC[C@@H]1C(C(=O)OC)=C(c1c(C)noc1C)C2` the “activity change, negative = cytotoxic” value was inactive: 6.57%. For `O=S1(=O)CC2(N3CCOCC3)CCCCC21` (stereo unspecified), the activity change, negative = cytotoxic was inconclusive: 20.2%. With `Cc1csc(=N)n1Cc1ccccc1` the “activity change, negative = cytotoxic” value was inactive: 13.6%. For `CCCCCCCCn1sccc1=O`, the Potency was inconclusive: 23.1 µM [cytotoxic, single point]. In the case of `COc1ccc(NC2=NC(C)(C)CS2)cc1`, the Potency was inconclusive: 0.651 µM [rising, full curve]. In the case of `CC(C)(C)c1ccc(CSc2cnn(C(C)(C)C)c(=O)c2Cl)cc1`, the Potency was inconclusive: 0.0065 µM [cytotoxic, full curve, poor fit]. With `COc1ccc(N2C(=O)/C(=C/c3ccc(OC)c(OC)c3)C(=O)NC2=S)cc1` the “activity change, negative = cytotoxic” value was inactive: 20.6%. With `CCOC(=O)C12C(=O)OCC1C2c1ccccc1` (stereo unspecified) the Potency was inconclusive: 32.6 µM [rising, single point]. With `CC(C)c1ccc(N2C(=O)NC(=O)/C(=C/C=C/c3ccco3)C2=O)cc1` the Potency was active: 14.6 µM. In the case of `CC1NC(=O)NC(=O)C1Br` (stereo unspecified), the “activity change, negative = cytotoxic” value was inactive: 7.04%. In the case of `CS(=O)(=O)c1ccc(C2=C(CNC(=O)c3nccs3)[C@H]3CC[C@@H](C2)N3CCOc2ccccc2)cc1`, the “activity change, negative = cytotoxic” value was inactive: -3.04%. For `C[C@H](NC(=O)N1C[C@H]2C[C@@H](C1)c1cccc(=O)n1C2)C(=O)Nc1ccccc1F`, the activity change, negative = cytotoxic was inconclusive: -11.2%. For `O=C1NC(=O)C(CCc2ccncc2)(Cc2ccc3c(c2)OCO3)C(=O)N1CCc1ccccc1` (stereo unspecified), the Potency was inconclusive: 20 µM [cytotoxic, partial curve, poor fit].
